Data taken from patent publication US20190270826A1.
Where a chain is given by its changes, count along the chain named. These are yes or no findings as the source states them, for the method shown. Some entries that bind do so weakly or less than the wild type.

Protein sequences, listed by entry. Tags and fused reporters are not part of them. Lines headed by an entry give the natural chain unless they say otherwise; changes in a name come on top.
UniProt Q9NPH3: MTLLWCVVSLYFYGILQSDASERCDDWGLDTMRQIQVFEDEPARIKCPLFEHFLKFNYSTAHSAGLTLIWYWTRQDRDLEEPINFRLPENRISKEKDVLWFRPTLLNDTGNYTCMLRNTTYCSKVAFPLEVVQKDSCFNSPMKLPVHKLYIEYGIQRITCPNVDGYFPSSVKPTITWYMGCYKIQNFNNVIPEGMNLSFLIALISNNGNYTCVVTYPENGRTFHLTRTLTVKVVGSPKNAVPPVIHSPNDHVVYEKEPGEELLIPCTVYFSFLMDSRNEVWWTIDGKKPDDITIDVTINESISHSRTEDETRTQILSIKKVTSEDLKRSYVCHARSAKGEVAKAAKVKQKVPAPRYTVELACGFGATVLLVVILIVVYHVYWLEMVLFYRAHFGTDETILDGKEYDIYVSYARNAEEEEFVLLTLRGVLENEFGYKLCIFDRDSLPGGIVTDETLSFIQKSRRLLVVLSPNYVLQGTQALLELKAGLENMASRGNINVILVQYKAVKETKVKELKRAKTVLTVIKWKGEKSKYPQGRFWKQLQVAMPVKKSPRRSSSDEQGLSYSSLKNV

B1: IAPB38 (antibody, human IgG4 S228P, kappa, F234A L235A, V domains shown)
VH: EVQLLESGGGLVQPGGSLRLSCAASGFTFSNYAMNWVRQAPGKGLEWVSGINYGGGSKYYADSVKGRFTISRDNSKNTLYLQMNSLRAEDTAVYYCAKDYGPFALDYWGQGTLVTVSS
VL: EIVLTQSPATLSLSPGERATLSCRASQSVDDWLAWYQQKPGQAPRLLIYTASNRATGIPARFSGSGSGTDFTLTISSLEPEDFAVYYCQQYHHWPLTFGQGTKVEIKR
B2: IAPB47 (antibody, human IgG4 S228P, kappa, F234A L235A, V domains shown)
VH: EVQLVQSGAEVKKPGESLKISCKGSGYSFTSYWIGWVRQMPGKGLEWMGIIYPSDSYTRYSPSFQGQVTISADKSISTAYLQWSSLKASDTAMYYCARRNSAENYADLDYWGQGTLVTVSS
VL: EIVLTQSPGTLSLSPGERATLSCRASQSISNDLNWYQQKPGKAPKLLIYYASSLQSGVPSRFSGSGSGTDFTLTINSLQPEDFATYYCQQSFTAPLTFGQGTKVEIKR
B3: IAPB55 (antibody, human IgG4 S228P, kappa, F234A L235A, V domains shown)
VH: QLQLQESGPGLVKPSETLSLTCTVSGVSISSSTYYWGWLRQPPGMGLEWTGSIYFTGNTYYNPSLKSRVTISVDTSRNQFSLKLSSVTAADTAVYYCGSLFGDYGYFDYWGQGTLVTVSS
VL: EIVMTQSPATLSVSPGERATLSCRASQFISSNLAWYQQKPGQAPRLLIYGASTRATGIPARFSGSGSGTDFTLTISSLQSEDFAVYYCQQYNNWPFTFGPGTKVDIKR
B4: IAPB61 (antibody, human IgG4 S228P, kappa, F234A L235A, V domains shown)
VH: B3 VH
VL: B3 VL with S14P, F96S
B5: IAPB54 (antibody, human IgG4 S228P, lambda, F234A L235A, V domains shown)
VH: QVQLVQSGSELKKPGASVKVSCKASGYTFNTYAMNWVRQAPGQGLEWMGWINTNTGNPTYAQGFTGRFVFSLDTSVSTAYLQISSLKAEDTAVYYCARRYFDWLLGAFDIWGQGTMVTVSS
VL: QSALTQPRSVSGSPGHSVTISCTGTSSDVGDYNYVSWYQQRPGKVPKLLIYDVSKRPSGVPDRFSGSKSGNTASLTISGLQAEDEAIYFCCSYAGNYNVVFGGGTKLTVLG
B6: IAPB62 (antibody, human IgG4 S228P, kappa, F234A L235A, V domains shown)
VH: B5 VH
VL: DIQMTQSPSSVSASVGDRVTITCRASQGISSWLAWYQQKPGKAPKLLIYAASSLQSGVPSRFSGSGSGTDFTLTISSLQPEDFATYYCQQANSFPLTFGGGTKVEIKR

Target: recombinant human IL1RAP ECD (human) (UniProt Q9NPH3)
Assay: recombinant protein

binding	Binder
binds	B1
binds	B2
binds	B3
binds	B4
binds	B5
binds	B6
